Measured values from publication doi:10.1101/2023.10.10.561251.
These are yes or no findings as the source states them, for the method shown. Binding seen in cells or lysates may run through a third protein. Some binding calls cover weakened binding; strength is not graded here. Tags and fused reporters may be left off the sequences shown.

Molecular target: T1, VIA1-YFP (Arabidopsis VIA1 with a C-terminal YFP) (A. thaliana) (UniProt Q8GW20)
T1 sequence: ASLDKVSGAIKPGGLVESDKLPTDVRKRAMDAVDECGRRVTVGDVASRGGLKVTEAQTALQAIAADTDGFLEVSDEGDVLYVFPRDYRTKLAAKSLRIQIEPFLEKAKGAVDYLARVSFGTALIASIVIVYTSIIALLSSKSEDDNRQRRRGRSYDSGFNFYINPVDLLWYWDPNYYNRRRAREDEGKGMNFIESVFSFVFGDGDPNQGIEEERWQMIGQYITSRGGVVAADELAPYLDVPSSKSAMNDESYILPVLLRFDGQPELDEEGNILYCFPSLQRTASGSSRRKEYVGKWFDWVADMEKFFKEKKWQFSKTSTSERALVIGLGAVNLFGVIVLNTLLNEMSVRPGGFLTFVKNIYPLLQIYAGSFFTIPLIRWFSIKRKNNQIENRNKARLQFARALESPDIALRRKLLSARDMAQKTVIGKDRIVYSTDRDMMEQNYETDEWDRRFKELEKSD
Experiment: co-IP

B1: VIPP1-FLAG (Arabidopsis VIPP1 with a FLAG tag) (protein, UniProt O80796 65-330)
chain: CNGHGATMNLFERFSRVVKSYANALISSFEDPEKILEQTVIEMNSDLTKMRQATAQVLASQKQLQNKYKAAQQSSDDWYKRAQLALAKGDEDLAREALKRRKSFADNATALKTQLDQQKGVVDNLVSNTRLLESKIQEAKAKKDTLLARARTAKTATKVQEMIGTVNTSGALSAFEKMEEKVMAMESEADALTQIGTDELEGKFQMLETSSVDDDLADLKKELSGSSKKGELPPGRSTVAASTRYPFKDSEIENELNELRRKANDF
Question: Which binding does the source give for B1 here?
Answer: binds
